Experimental findings from PubChem BioAssay AID330 (DTP/NCI, 2004) are described below.

The list shows only some results of the screen, not a fair sample: it gathers some chemical classes. Other doses and runs of a compound may be missing. T/C: endpoint of the treated group in % of that of the vehicle group. Some doses have a count of surviving animals in place of a T/C: the source files T/C as zero there, which appears to mark a toxic dose or a test without result, not a measured value. Some doses without a T/C left all or most animals alive at the check, yet need not have been tolerated: the source hardly ever lists a survival T/C far under the control, and the zero likely stands for such cases as well. Survivors were counted at the toxicity check, usually on the fifth day, unless a day is given; later deaths do not show. Schedules are NCI's codes, read here as Q, the interval in days (D) or hours (H), X, the number of doses. For survival time, the PubChem record calls one and a half times the control and up active, and a quarter to a half above the control has no call in these data; cut-offs in other NCI protocols can differ. Some entries were tested several times; the values are given in rising order. Some entries show no survivor count and are marked so; the dose need not have been tolerated. Some T/C values are followed by the survivors on the day toxicity was checked, most often the fifth; where neither a count nor a note follows, no animal had died by that day.

The test deals with P388 leukemia ip, CD2F1 mice, survival T/C. Briefly: NCI In Vivo Anticancer Drug Screen. Data for tumor model P388 Leukemia (intraperitoneal) in CD2F1 (CDF1) mice. As to conditions: T/C endpoint: median survival time, higher T/C = longer survival.
[1] abbreviates: dose: 100.0 mg/kg/injection, schedule: Q01DX009 (ip), vehicle: Klucel (hydroxypropylcellulose) (HPC).
Setting [2] is: dose: 200.0 mg/kg/injection, schedule: Q01DX009 (ip), vehicle: Klucel (hydroxypropylcellulose) (HPC).
[3] abbreviates: dose: 50.0 mg/kg/injection, schedule: Q01DX009 (ip), vehicle: Klucel (hydroxypropylcellulose) (HPC).
[4] abbreviates: dose: 50.0 mg/kg/injection, schedule: Q01DX005 (ip), vehicle: Klucel (hydroxypropylcellulose) (HPC).
The mark [5] stands for this setting: dose: 100.0 mg/kg/injection, schedule: Q01DX005 (ip), vehicle: Klucel (hydroxypropylcellulose) (HPC).
The mark [6] stands for this setting: dose: 200.0 mg/kg/injection, schedule: Q01DX005 (ip), vehicle: Klucel (hydroxypropylcellulose) (HPC).

As for `CC(C)OP(C)(=O)O.[Ti]`, the T/C reads like this: under setting [1], 94 % of control [survivor count not shown]; under setting [2], 100 % of control [survivor count not shown]; (dose: 400.0 mg/kg/injection, schedule: Q01DX009 (ip), vehicle: Klucel (hydroxypropylcellulose) (HPC)) 93 % of control [survivor count not shown].
In the case of `N1=C(c2nnc(-c3nn[nH]n3)nn2)NNN1`, the T/C is, setting by setting: under setting [3], 93 % of control [survivor count not shown]; under setting [1], 100 % of control [survivor count not shown]; under setting [2], 94 % of control [survivor count not shown].
Take `N/C(=N\[N+](=O)[O-])N(CCCl)N=O`: the T/C runs as follows: (dose: 5.0 mg/kg/injection, schedule: Q01DX009 (ip), vehicle: saline) 100 % of control; (dose: 10.0 mg/kg/injection, schedule: Q01DX009 (ip), vehicle: saline) 104 % of control; (dose: 20.0 mg/kg/injection, schedule: Q01DX009 (ip), vehicle: saline) 118 % of control; (dose: 40.0 mg/kg/injection, schedule: Q01DX009 (ip), vehicle: saline) 127 % of control.
As for `N/C(=N\[N+](=O)[O-])N(CCO[N+](=O)[O-])N=O`, the T/C was 127 % of control [survivor count not shown] (dose: 25.0 mg/kg/injection, schedule: Q01DX009 (ip), vehicle: saline with Tween-80); 118 % of control [survivor count not shown] (dose: 25.0 mg/kg/injection, schedule: Q04DX003 (ip), vehicle: saline with Tween-80); 127 % of control [survivor count not shown] (dose: 50.0 mg/kg/injection, schedule: Q01DX009 (ip), vehicle: saline with Tween-80); 118 % of control [survivor count not shown] (dose: 50.0 mg/kg/injection, schedule: Q04DX003 (ip), vehicle: saline with Tween-80); 131 % of control [survivor count not shown] (dose: 66.0 mg/kg/injection, schedule: Q04DX003 (ip), vehicle: saline with Tween-80); 131 [survivor count not shown] and 140 % of control [survivor count not shown] (dose: 100.0 mg/kg/injection, schedule: Q04DX003 (ip), vehicle: saline with Tween-80).
Regarding `[N-]=[N+]=NC1(N=[N+]=[N-])C(=O)NC(=O)NC1=O`, the T/C is, setting by setting: (dose: 3.12 mg/kg/injection, schedule: Q01DX005 (ip), vehicle: Klucel (hydroxypropylcellulose) (HPC)) 107 % of control [5 of 6 alive]; (dose: 6.25 mg/kg/injection, schedule: Q01DX005 (ip), vehicle: Klucel (hydroxypropylcellulose) (HPC)) 101 % of control; (dose: 12.5 mg/kg/injection, schedule: Q01DX005 (ip), vehicle: Klucel (hydroxypropylcellulose) (HPC)) 112 % of control. Also, the survivor count was 1 of 6 under setting [4], 0 of 6 under setting [5] and 0 of 6 under setting [6].
Take `C/C(=C/C(=O)O)[As]12(OC(C)(C3CCC4CCCC43)O1)OC(C)(C13CCCC1CCC3)O2` (stereo unspecified): the T/C reads like this: (dose: 7.5 mg/kg/injection, schedule: Q01DX009 (ip), vehicle: saline with Tween-80) 99 % of control; (dose: 15.0 mg/kg/injection, schedule: Q01DX009 (ip), vehicle: saline with Tween-80) 98 % of control; (dose: 30.0 mg/kg/injection, schedule: Q01DX009 (ip), vehicle: saline with Tween-80) 98 % of control.
As for `NC(Cc1ccc(N(CCCl)CCCl)c(Cl)c1)C(=O)O` (stereo unspecified), the T/C (dose: 1.25 mg/kg/injection, schedule: Q04DX003 (ip), vehicle: saline with Tween-80) is 190 % of control; the T/C (dose: 2.0 mg/kg/injection, schedule: Q01DX009 (ip), vehicle: saline) was 250 % of control; the T/C (dose: 2.5 mg/kg/injection, schedule: Q04DX003 (ip), vehicle: saline with Tween-80) was 222 % of control; the T/C (dose: 3.3 mg/kg/injection, schedule: Q04DX003 (ip), vehicle: saline sonified) is 272 % of control; the T/C (dose: 5.0 mg/kg/injection, schedule: Q04DX003 (ip), vehicle: saline sonified) was 272 % of control; the T/C (dose: 5.0 mg/kg/injection, schedule: Q04DX003 (ip), vehicle: saline with Tween-80) is 272 % of control. For the setting “dose: 7.5 mg/kg/injection, schedule: Q04DX003 (ip), vehicle: saline sonified”, the T/C was 118 % of control. Also, the survivor count reads like this: (dose: 4.0 mg/kg/injection, schedule: Q01DX009 (ip), vehicle: saline) 6 of 6; (dose: 8.0 mg/kg/injection, schedule: Q01DX009 (ip), vehicle: saline) 5 of 6; (dose: 10.0 mg/kg/injection, schedule: Q04DX003 (ip), vehicle: saline with Tween-80) 5 of 6; (dose: 20.0 mg/kg/injection, schedule: Q04DX003 (ip), vehicle: saline with Tween-80) 3 of 6; (dose: 40.0 mg/kg/injection, schedule: Q04DX003 (ip), vehicle: saline with Tween-80) 2 of 6.
Consider `CN(CCCl)/N=N/c1nc2nc[nH]c(=O)c2[nH]1`, for which the T/C reads like this: under setting [4], 100 % of control; under setting [5], 97 % of control; under setting [6], 100 % of control.
With `C1CN1.O=C(O)CCSCNc1ncnc2c1ncn2C1OC(CO)C(O)C1O` (stereo unspecified), the T/C (dose: 5.0 mg/kg/injection, schedule: Q04DX002 (ip), vehicle: saline) is 113 % of control; the T/C (dose: 10.0 mg/kg/injection, schedule: Q04DX002 (ip), vehicle: saline) is 118 % of control; the T/C (dose: 20.0 mg/kg/injection, schedule: Q04DX002 (ip), vehicle: saline) was 114 % of control. In addition, the survivor count runs as follows: (dose: 100.0 mg/kg/injection, schedule: Q04DX002 (ip), vehicle: saline) 0 of 6; (dose: 200.0 mg/kg/injection, schedule: Q04DX002 (ip), vehicle: saline) 0 of 6; (dose: 400.0 mg/kg/injection, schedule: Q04DX002 (ip), vehicle: saline) 0 of 6.
On to `CCCNC(=O)c1ccc(N(CCCl)CCCl)cc1`, for which the T/C is, setting by setting: (dose: 6.25 mg/kg/injection, schedule: Q01DX009 (ip), vehicle: Klucel (hydroxypropylcellulose) (HPC)) 125 % of control; (dose: 12.5 mg/kg/injection, schedule: Q01DX009 (ip), vehicle: Klucel (hydroxypropylcellulose) (HPC)) 109 % of control; (dose: 25.0 mg/kg/injection, schedule: Q01DX009 (ip), vehicle: Klucel (hydroxypropylcellulose) (HPC)) 112 and 134 % of control; under setting [3], 113 and 118 % of control; under setting [1], 101 % of control. For the same compound, the survivor count under setting [2] is 0 of 6.
On to `CC1=NP(=O)(Oc2ccccc2)N=C(C)N1`, for which the T/C is, setting by setting: under setting [4], 102 % of control; under setting [5], 116 % of control; under setting [6], 106 % of control.
Take `O=[N+]([O-])c1cccc2no[n+]([O-])c12`: the T/C by setting is: (dose: 50.0 mg/kg/injection, schedule: Q01DX005 (ip), vehicle: saline with Tween-80) 100 % of control; (dose: 100.0 mg/kg/injection, schedule: Q01DX005 (ip), vehicle: saline with Tween-80) 93 % of control [4 of 6 alive]. In addition, where the note is “dose: 200.0 mg/kg/injection, schedule: Q01DX005 (ip), vehicle: saline with Tween-80”, the survivor count is reported as 3 of 6.
On to `CN(N=O)C1=NC(c2ccccc2Cl)P(=O)(Nc2ncccn2)O1` (stereo unspecified), for which the T/C is, setting by setting: (dose: 60.0 mg/kg/injection, schedule: Q01DX005 (ip), vehicle: saline with Tween-80) 100 % of control; (dose: 120.0 mg/kg/injection, schedule: Q01DX005 (ip), vehicle: saline with Tween-80) 100 % of control; (dose: 240.0 mg/kg/injection, schedule: Q01DX005 (ip), vehicle: saline with Tween-80) 106 % of control.
